Values of other authors in PMC6149861, “Identification, In Vitro Testing and Molecular Docking Studies of Microginins’ Mechanism of Angiotensin-Converting Enzyme Inhibition” (Molecules : A Journal of Synthetic Chemistry and Natural …, 2017).

Tested on: human ACE
Conditions: co-crystal structure; ref PDB: 2X8Z; cited from earlier work

C[C@H](CS)C(=O)N1CCC[C@H]1C(=O)O [captopril]
distance sulphur atom to zinc: 2.1 Å | hydrogen bond with Tyr507 and His337 (in words): the residues Tyr507 and His337 show a hydrogen bond with captopril and microginin | location of ring in ACE (in words): located in the S2-pocket of the ACE
